Some results were stated once for a whole list of compounds, not compound by compound.
Experiment: HPLC quantification of compound remaining after storage at 50° C.
Type: physicochemical
Conditions: storage at 50° C. for 4 and 8 weeks (Table 13 formulas)
Experimental: Briefly, formulations containing either LAE or any of the 26 compounds and standards are diluted into a solution of 50% acetonitrile and 50% water. They are evaluated on an Agilent HPLC using a Zorbax ion exchange column. In the method, 10 uL of the sample is withdrawn and ran through the HPLC with a 40% potassium phosphate (molarity at pH 3.0) 60% acetonitrile mobile phase. […] The molecule peak is auto integrated using the Online Agilent HPLC software. Comparisons are made to the standard to identify the % of compound remaining following storage.

## [amino({[4-dodecanamido-4-(methylcarbamoyl)butyl]amino})methylidene]azanium [Compound 4]
  structural stability via HPLC in simple solution formulations: Stable
